Measurements: paper PMC11990924, “Inhibition of Tyrosinase and Melanogenesis by Carboxylic Acids: Mechanistic Insights and Safety Evaluation” (Molecules, 2025)

System: B16-F10 cells
Experiment: Proteomic analysis of B16-F10 cells (DIA mass spectrometry)
Assay type: cell-based, mouse
Conditions: fold change ≥ 2
Method: B16-F10 cells were treated with various concentrations of carboxylic acids following the same culture protocol used for melanin inhibition assays. After treatment, the cells were collected and submitted to Shanghai Zhongke Xinming Biotechnology Co., Ltd. (Shanghai, China) for proteomics analysis. The collected cells were lysed with an appropriate volume of SDT lysis buffer (4% SDS, 100 mM Tris-HCl, pH 7.6) to extract proteins. DTT was added to reduce disulfide bonds, followed by incubation at room temperature for 1 h. Subsequently, iodoacetamide was added, and the mixture was reacted in the dark at room temperature for 30 min. The proteins were then digested with trypsin overnight. The resulting peptide fragments were desalted using a C18 cartridge. After freeze-drying, the peptides were resuspended in 40 μL of 0.1% formic acid solution, and the peptide concentration was determined by measuring the absorbance at 280 nm. An appropriate amount of internal reference for targeted proteomics (iRT) standard peptides was added to each sample for data-independent acquisition (DIA) mass spectrometry analysis. Chromatographic separation was performed using a nanoflow Evosep One system. The separated samples were analyzed by DIA mass spectrometry using a timsTOF Pro mass spectrometer (Bruker Daltonics, Bremen, Germany). Detection was conducted in positive-ion mode, with MS and MS/MS scanning ranges set from 100 to 1700 m/z. MS2 data acquisition was performed in DIA mode, with four TIMS scan windows, each accumulating for 100 ms. In PASEF mode, the collision energy varied linearly with ion mobility (1/K0), ranging from 20 to 59 eV for ions with 1/K0 values between 0.85 and 1.30 Vs/cm^2. The DIA data were processed using Spectronaut 19 software with the following parameter settings: retention time prediction type set to dynamic iRT, interference correction on MS2 level enabled, cross-run normalization enabled, maximum missed cleavage sites set to 2, fixed modification set to Carbamidomethyl (C), and variable modifications set to Oxidation (M) and Acetyl (Protein N-term). All results were filtered with a Q-value cutoff of 0.01, corresponding to a false discovery rate (FDR) of less than 1%. The target protein set was annotated using Blast2GO (version BLASTP 2.8.0+). The process included four steps: sequence alignment (Blast), GO mapping, GO annotation, and additional annotation augmentation using InterProScan. Using the KOBAS 3.0 software, KEGG pathway annotation was performed on the target protein set. Fisher’s exact test was employed to compare the distribution of GO categories in the target protein set and the overall protein set, thereby conducting enrichment analysis of the GO annotations in the target protein set. The proteomics dataset generated in this study has been made publicly available through the PRIDE ProteomeXchange Consortium with the dataset identifier PXD061919.

SMILES | number of downregulated proteins (6 mM) | number of upregulated proteins (6 mM) | number of downregulated proteins (12 mM) | number of upregulated proteins (12 mM)
O=C(O)C(O)Cc1ccccc1 (stereo not shown) [3-phenyllactic acid] | 83 | 24 |  | 
CC(O)C(=O)O (stereo not shown) [lactic acid] |  |  | 61 | 23
O=C(O)CC(O)C(=O)O (stereo not shown) [malic acid] |  | 14 |  | 
O=C(O)[C@@H]1CCC(O)=N1 [L-pyroglutamic acid] | 32 | 9 |  | 
